## Screening data, single-dose tests

Data taken from ChEMBL document CHEMBL3988442, “University of Dundee, Small-Polar-MMV Screening Library” (2021).

Each number is a percent effect as filed.
The controls that fix the scale are not given in the record; negative values are as filed.
The compounds are a random part of those screened.

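Phenotypic screen: M. tuberculosis growth, cholesterol and DPPC medium, 4 days; the read-out is not stated. Tested at 500 µM. The record gives no direction; compounds that gave an IC50 in retests scored well above the rest, so higher reads as more growth inhibition. Size under these conditions: about 18,000 compounds, about 900 of them at 50% or above in at least one test.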

| structure | Percent Effect |
|---|---|
| `O=C(NC(C1CCNCC1)[C@H]1C[C@H](O)C1)c1cc[nH]n1` (some centres unmarked) | 1.065 |
| `CCc1noc(CN(C)CC2CCN(C)CC2)n1` | 4.528 |
| `O=C(NCC(O)C1CCOCC1)c1c(F)cccc1Cl` (centres unmarked) | -11.91 |
| `CCOc1cncc(C(=O)NC)c1` | -9.465 |
| `O=C1CN(Cc2ncc(-c3ccc(Cl)cc3)o2)CCN1` | -14.33 |
| `Cc1nnc(NC(=O)c2ccc3c(c2)OCCO3)s1` | 0.2269 |
| `CC(C)NC(=O)CN1CCCN(c2ccccn2)CC1` | 17.53 |
| `CC(=O)c1cc[nH]n1` | -15.06 |
| `CC(C)NC(=O)NC(C)Cc1ccc(O)cc1` (centres unmarked) | -0.611 |
| `Cc1occc1[S+]([O-])CC(=O)NCC(F)(F)F` (centres unmarked) | 9.977 |
| `CC(N)c1noc(-c2ccccc2)n1` (centres unmarked) | 31.06 |
| `CCC(=O)N1CCC(CCCN2CCOCC2)CC1` | 1.022 |
| `CSCc1noc(CN2C[C@H](C3CC3)[C@@H](N)C2)n1` | -1.459 |
| `O=C(C1CCC1)N1CCn2c1nc1ccccc12` | 19.74 |
| `Cc1cc(CN)nc(N2CCCC2)n1` | -19.24 |
| `CCN(CC(C)C#N)C(=O)c1sccc1C` (centres unmarked) | 8.801 |
| `CCOc1ccc(NC(=O)[C@H](C)N(C)C)cc1` | 11.74 |
| `COc1ccc2cc(CN(C)C(C)=O)c(=O)[nH]c2c1` | 0.6324 |
| `CC(N[C@H](CO)C(C)C)c1cncc(F)c1` (some centres unmarked) | -10.78 |
| `Nc1[nH]nc(C(=O)N2CCCC(c3nnc[nH]3)C2)c1Cl` (centres unmarked) | 1.831 |
| `CC(C(=O)NC(N)=O)N1CCN(c2cnccn2)CC1` (centres unmarked) | -1.019 |
| `O=C(Nc1cccc(-n2cccn2)c1)N1CCSCC1` | 55.09 |
| `CCn1cnnc1CNC(=O)NC(C)Cn1cccn1` (centres unmarked) | -1.54 |
| `CCN(CCO)Cc1cc(-c2cccs2)on1` | 48.25 |
| `O=C1CC(N2CCN(Cc3ccccc3)CC2)C(=O)N1` (centres unmarked) | -9.079 |
| `Cc1n[nH]cc1CNCCNc1ncccn1` | -7.866 |
| `CCCC(C(=O)OCC)S(N)(=O)=O` (centres unmarked) | -22.35 |
| `CC(CNC(=O)c1nccnc1N)Cn1ccnc1` (centres unmarked) | 11.65 |
| `CCNC(=O)C(C)(C)CN` | -2.377 |
| `CCOCn1cnc2sccc2c1=O` | -3.509 |
| `COCC(O)CNc1cc(C)nc2ccccc12` (centres unmarked) | -10.93 |
| `CN(C(=O)Cn1cc(Br)cn1)C1(C#N)CCCCC1` | -2.974 |
| `Cc1ccc(S(=O)(=O)N2CCOCC2)c2cccnc12` | -6.706 |
| `O=C(NCC(F)(F)F)C1CCCN(Cc2ccon2)C1` (centres unmarked) | 17.64 |
| `Cc1ccnc(CN)n1` | 3.255 |
| `Cc1ccc(CNC(=O)c2nccs2)cn1` | 36.16 |
| `O=C(Cc1ccccn1)N1CCCNCC1` | 7.716 |
| `NCc1ccnc(N2CCCC2)n1` | -21.75 |
| `CN(CC(=O)NCCC#N)Cc1ccc2c(c1)OCO2` | 7.752 |
| `CC(C)CS(=O)(=O)CCNC(=O)c1ccon1` | 7.265 |
| `Cc1nccn1CCNC(=O)OC(C)(C)C` | -22.07 |
| `CCOCCN1CCN(CC(=O)N2CCCC2)CC1` | -7.435 |
| `NC(=O)c1ccc2c(n1)NCCC2` | 3.532 |
| `CN1CC(NC(=O)NCCc2cccs2)CC1=O` (centres unmarked) | -7.251 |
| `CC(C)N1CC(C(=O)N2CCC(C)(C)C2)CC1=O` (centres unmarked) | 4.872 |
| `CC1CN(c2nccnc2C#N)CCN1` (centres unmarked) | 6.057 |
| `CC(C)(C)c1ccc(N)nc1` | -3.732 |
| `NS(=O)(=O)N1CCCN(Cc2ccccc2)CC1` | -3.253 |
| `CCN1CCCN(c2nc(C3CC3)no2)CC1` | -2.019 |
| `Cn1c(CN2CCSCC2)cc(=O)n(C)c1=O` | -3.326 |
| `CN(Cc1ccco1)C(=O)c1cc(C2CC2)[nH]n1` | 69.93 |
| `Cn1nccc1C(=O)N1CCC(Oc2ccccc2)C1` (centres unmarked) | 52.32 |
| `O=C(Nc1c[nH]nc1C1CCCNC1)C1CCCC1` (centres unmarked) | -0.7393 |
| `CN(C)c1ccccc1C(=O)N1CCCC(C)(O)CC1` (centres unmarked) | -0.7297 |
| `OCc1ccccc1OCCn1ccnc1` | 26.24 |
| `OC1CCNC12CCCC2` (centres unmarked) | -14.6 |
| `N#Cc1cccc(NCC(=O)NCc2ccco2)c1` | 53.27 |
| `O=C1NC2(CCCCC2)C(=O)Nc2ccccc21` | 2.248 |
| `NC(CCO)Cc1ccccc1` (centres unmarked) | 16.29 |
| `CC(C)NC(=O)CCN1CCC(CN2CCCC2)CC1` | -1.826 |
| `O=C(O)C1CN(Cc2ccc(CN3CCCCC3)s2)C1` | -12.35 |
| `Cc1ccc(C(=O)N(C)C(C)CN)cc1C` (centres unmarked) | 2.078 |
| `Cc1cnc(C(=O)Nc2ccn(C)n2)cn1` | -23.31 |
| `N#CC1CCCN(CCC(=O)Nc2cccnc2)C1` (centres unmarked) | -12.56 |
| `COCCC1CN(C(=O)Cc2cccc(O)c2)CCO1` (centres unmarked) | 2.421 |
| `O=C(CCn1cnnc1)Nc1cccc(F)c1` | 5.488 |
| `CSCC(=O)NCCc1nc(Cc2ccccc2)no1` | 26.6 |
| `OC1(CNCC2(O)CCCC2)CCCC1` | -7.258 |
| `Cc1nccc(NCC(=O)NCc2ccco2)c1Cl` | 15.81 |
| `CC(N)c1nnc(-c2ccccc2F)s1` (centres unmarked) | 7.861 |
| `O=C(NCc1cc(F)cc(Br)c1)C1COCCN1` (centres unmarked) | 14.78 |
| `N#Cc1cc(NC(=O)N2CCOCC2)ccc1Cl` | -12.6 |
| `Nc1nc(C2CC(N)C2)cc(N2CCC(F)CC2)n1` (centres unmarked) | 6.197 |
| `CCc1ccccc1NC(=O)CCN` | 6.33 |
| `NC(=O)c1nccn1Cc1ccccc1` | 7.467 |
| `CS(=O)(=O)N1CC(CN)C1` | -17.63 |
| `CNC1CCN(c2cccnn2)CC1` | -11.59 |
| `Cc1ccccc1-n1nnnc1SCC(=O)NC1CC1` | 24.71 |
| `CNCCOc1cccc(C)c1` | 15.74 |
| `CC(C)Oc1cccc(CN2CCC(C(N)=O)CC2)c1` | -21.76 |

Once more, the final 8:

* Nc1nc(C2CC(N)C2)cc(N2CCC(F)CC2)n1 (centres unmarked) : 6.197%
* CCc1ccccc1NC(=O)CCN : 6.33%
* NC(=O)c1nccn1Cc1ccccc1 : 7.467%
* CS(=O)(=O)N1CC(CN)C1 : -17.63%
* CNC1CCN(c2cccnn2)CC1 : -11.59%
* Cc1ccccc1-n1nnnc1SCC(=O)NC1CC1 : 24.71%
* CNCCOc1cccc(C)c1 : 15.74%
* CC(C)Oc1cccc(CN2CCC(C(N)=O)CC2)c1 : -21.76%